Measured values reported in paper PMC4834066.
Results are given in words; binding and its absence hold for the method and conditions named.

Key:
[1] = molecular target: Af1502 (Archaeoglobus fulgidus) (UniProt O28770); experiment: SEC + other: static light scattering; analytical gel filtration and static light scattering of Af1502; both purified
[2] = molecular target: Af1502 (Archaeoglobus fulgidus) (UniProt O28770); experiment: NMR titration; NMR spectroscopy across a range of protein concentrations of Af1502; both purified
[3] = molecular target: Af1502 (Archaeoglobus fulgidus) (UniProt O28770); experiment: crystal structure; SeMet-derivative, 1.6 Å; two monomers in the asymmetric unit; both purified

Measured: binding

B1: Af1502 (protein, UniProt O28770 1-68)
chain: MITYKKLLDELKKEIGPIAKIFLNKAMESLGYDDVDDSNYKEILSVLKMNKELREYVEIVEERLEKEG
no binding: all assays above
